The results in this text go back to the supplement of paper PMC12067093, “Discovery and optimisation of a covalent ligand for TRIM25 and its application to targeted protein ubiquitination” (Chemical Science, 2025).

The list shows a part of the results.
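Further: competitive chemoproteomic profiling in live THP-1 cells with an iodoacetamide desthiobiotin (IA-DTB) probe, comparing probe-labelled peptide intensities in compound-treated cells against DMSO-treated controls.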

Compound in this assay: CC1Cc2ccccc2N1C(=O)C1CCCN(C1)C(=O)CCl (mixture of isomers) [TRIM25 ligand 11 (diastereomer mixture)]
The assay can be described thus: probe-labelled cysteine peptide fold change vs DMSO (competition) (log2 fold change); higher = less target engagement (more negative = stronger competition). Particulars: 10 µM; THP-1; incubation time: 4 h.
Consider “HELZ_P42694_696_ILICTHSNSAADLYIK (UniProt P42694)”, for which the “probe-labelled cysteine peptide fold change” value was 0.153.

Take “HEATR6_Q6AI08_232_SSDMDDITFCMLLQNALK (UniProt Q6AI08)”: the “probe-labelled cysteine peptide fold change” value was -0.0289.

Turning to “HCFC1_P51610_227_LVIYGGMSGCR (UniProt P51610)”, the “probe-labelled cysteine peptide fold change” value is -0.0893.

Consider “HDAC3_O15379_59_MIVFKPYQASQHDMCR (UniProt O15379)”, for which the “probe-labelled cysteine peptide fold change” value is -0.135.

For the target “HK3_P52790_634_ASDCEGQDVVSLLR (UniProt P52790)”, the “probe-labelled cysteine peptide fold change” value amounted to 0.0738.

For “HK1_P19367_628_ATDCVGHDVVTLLR (UniProt P19367)”, the “probe-labelled cysteine peptide fold change” value was found to be 0.0386.

For “HERC2_O95714_914_ALSALLPCAVSGNEVNISPGRR (UniProt O95714)”, the “probe-labelled cysteine peptide fold change” value was determined as 0.0334.

For the target “HCFC2_Q9Y5Z7_659_VAAINGCGIGPFSK (UniProt Q9Y5Z7)”, the “probe-labelled cysteine peptide fold change” value was -0.0264.

As to “HELB_Q8NG08_368_AIAFSICDLMK (UniProt Q8NG08)”, the “probe-labelled cysteine peptide fold change” value was found to be 0.0413.

Consider “HDAC10_Q969S8_23_LLWDDPECEIERPER (UniProt Q969S8)”, for which the “probe-labelled cysteine peptide fold change” value was -0.046.

Consider “HAUS7_Q99871_119_LGHELMLCAPDDQELLK (UniProt Q99871)”, for which the “probe-labelled cysteine peptide fold change” value amounted to 0.257.

Take “HDAC5_Q9UQL6_982_CFGHLTR (UniProt Q9UQL6)”: the “probe-labelled cysteine peptide fold change” value is -0.000832.

For “HMBS_P08397_261_HLEGGCSVPVAVHTAMK (UniProt P08397)”, the “probe-labelled cysteine peptide fold change” value amounted to 0.00236.

As for HLA-DRA_P01903_132_EPNVLICFIDK, the “probe-labelled cysteine peptide fold change” value amounted to 0.0291.

As for “HDLBP_Q00341_878_RIQEIIEDLEAQVTLECAIPQK (UniProt Q00341)”, the “probe-labelled cysteine peptide fold change” value was -0.0308.

As for “HINT1_P49773_84_CAADLGLNK (UniProt P49773)”, the “probe-labelled cysteine peptide fold change” value is -0.0851.

With “HAUS6_Q7Z4H7_443_QHNQENGCR (UniProt Q7Z4H7)”, the “probe-labelled cysteine peptide fold change” value was 0.106.

Take “HK3_P52790_409_AAQLCAAALAAVLSCLQHSR (UniProt P52790)”: the “probe-labelled cysteine peptide fold change” value was -0.0103.

Consider “HK1_P19367_368+375_LGVEPSDDDCVSVQHVCTIVSFR (UniProt P19367)”, for which the “probe-labelled cysteine peptide fold change” value was -0.199.

On to “HECTD1_Q9ULT8_1944_NCSQLIAAYK (UniProt Q9ULT8)”, for which the “probe-labelled cysteine peptide fold change” value is 0.027.

On to “HEXB_P07686_360_CWESNPK (UniProt P07686)”, for which the “probe-labelled cysteine peptide fold change” value was -0.0387.

Consider “HK2_P52789_813_AILQHLGLESTCDDSIIVK (UniProt P52789)”, for which the “probe-labelled cysteine peptide fold change” value amounted to 0.344.

Take “HERC2_O95714_1201_ERDDHEELAWPGIMESFFTGQNCR (UniProt O95714)”: the “probe-labelled cysteine peptide fold change” value was found to be 0.231.

On to “HK1_P19367_375_LGVEPSDDDCVSVQHVCTIVSFR (UniProt P19367)”, for which the “probe-labelled cysteine peptide fold change” value is 0.0282.

For the target “HECTD1_Q9ULT8_1855_LLQLSCNGNVK (UniProt Q9ULT8)”, the “probe-labelled cysteine peptide fold change” value was -0.105.

Turning to “HECTD1_Q9ULT8_762_LTVGNWSLTCLK (UniProt Q9ULT8)”, the “probe-labelled cysteine peptide fold change” value stood at 0.0153.

Take “HLA-E_P13747_185_AYLEDTCVEWLHK (UniProt P13747)”: the “probe-labelled cysteine peptide fold change” value was found to be 0.0236.

Turning to “HINT1_P49773_38_CLAFHDISPQAPTHFLVIPK (UniProt P49773)”, the “probe-labelled cysteine peptide fold change” value was 0.0503.

On to “HLA-A_P01891_363_GGSYSQAASSDSAQGSDVSLTACK (UniProt P01891)”, for which the “probe-labelled cysteine peptide fold change” value worked out at 0.214.

Regarding “HERC2_O95714_4517_DESGANRDCYLLSPAAR (UniProt O95714)”, the “probe-labelled cysteine peptide fold change” value was found to be 0.0289.

Take “HECTD1_Q9ULT8_187_MEPQDSSLEICVESLSSLLK (UniProt Q9ULT8)”: the “probe-labelled cysteine peptide fold change” value is -0.019.

Take “HEXIM2_Q96MH2_80_TQSPGGCSAEAVLAR (UniProt Q96MH2)”: the “probe-labelled cysteine peptide fold change” value amounted to 0.0876.

For the target “HINT3_Q9NQE9_73_QDPGTELLHCENEDLICFK (UniProt Q9NQE9)”, the “probe-labelled cysteine peptide fold change” value was -0.0864.

Turning to “HCFC2_Q9Y5Z7_125_VKPHPPPSGLPPCPR (UniProt Q9Y5Z7)”, the “probe-labelled cysteine peptide fold change” value is -0.227.

With “HLA-C_P04222_345_GGSCSQAASSNSAQGSDESLIACK (UniProt P04222)”, the “probe-labelled cysteine peptide fold change” value turned out to be 0.0789.

Turning to “HIP1_O00291_906_GKFEELMVCSHEIAASTAQLVAASK (UniProt O00291)”, the “probe-labelled cysteine peptide fold change” value came out at 0.057.

Turning to “HERC2_O95714_664_CGSQFSIALTK (UniProt O95714)”, the “probe-labelled cysteine peptide fold change” value is -0.0687.
